{"source": "patent US8455510B2", "system": "acute graft-versus-host disease (aGVHD)", "experiment": "Acute graft-versus-host disease (aGVHD) mouse model", "type": "in vivo, C57B/6 mice", "details": "1.5 mg/kg/d, intraperitoneal injection, FIG. 15", "protocol": "Donator: BABL/C mice; acceptor: C57B/6 mice.\nC57B/6(H-2^b) mice, female, 7 weeks old, were used as the acceptor mice to receive 8.5 Gy of total body irradiation in a Gammacell.\nAfter the acceptor mice received irradiation for 4 to 6 hours, the heterogenetic bone marrow transplantation was carried out.\nBABL/C(H-2^d) mice, female, 4 weeks old were used as the donator mice. The bone marrow cells in long bone of the mice limbs and the spleen lymphocytes were collected and suspended in a PBS buffer solution respectively by adjusting the cell concentration to 1×10^8.\nThe two kinds of cells were mixed equivalently to prepare a mixed cell suspension. Each acceptor mouse was intravenously injected with 0.5 ml of the suspension.\nMice were randomly divided into 3 groups with 10 mice in each group. Mice were administered once daily from the first day when the bone marrow transplantation was carried out.\nY-31 group (1.5 mg/kg/d, intraperitoneal injection)\n(1) Body weight: weighted once daily;\n(2) The survival time of the mice after BMT was recorded.", "note": "At least one compound was matched to its structure with a doubt left."}
{"smiles": "CO[C@H]1C[C@@H]2CC[C@@H](C)[C@@](O)(O2)C(=O)C(=O)N2CCCC[C@H]2C(=O)O[C@H]([C@H](C)C[C@@H]2CC[C@@H](O)[C@H](OC)C2)CC(=O)[C@H](C)/C=C(\\C)[C@@H](O)[C@@H](OC)C(=O)[C@H](C)C[C@H](C)/C=C/C=C/C=C/1C", "note": "[Rapamycin]", "values": [{"measurement": "effect on the survival rate of the aGVHD mice", "result": "markedly increase the survival rate"}]}
